Laboratory results taken from US10273313B2, “Multimeric mannosides, a process for preparing the same and their uses as a drug” (CENTRE NATIONAL DE LA RECHERCHE SCIENTIFIQUE, priority 2012, dated 2019).
For some assays here: At least one structure is not confirmed: it was looked up by name or label, or the drawing left a doubt. Some of these results come from one statement about several compounds together.

Tests used:
[1] = system: E. coli strain UTI89 in the bladder of C3H/HeN mice; assay: In vivo inhibition in the murine cystitis model (instillation with UTI89); conditions: 0.01 mM (2 μg per mouse)
Protocol: In vivo inhibition was evaluated by instilling 1-4 together with the UTI89 strain via a catheter in the bladder of C3H/HeN mice. […] A group of ten animals was used for each concentration of antagonists. […] The animals were sacrificed at a 6 h post infection time.
A murine model of urinary tract infection was used to test the ability of the compounds to inhibit the colonization of UTI89 in the bladder [Hung C. S.; Dodson, K. W., Hultgren S. J. Nat. Protoc. 2009, 4, 1230-1243 and Wellens A.; Garofalo C.; Nguyen H.; Van Gerven N.; Slättegård R.; Hernalsteens, J.-P.; Wyns, L.; Oscarson, S.; De Greve H.; Hultgren S. J.; Bouckaert, J. PLoS ONE 2008, 3, e2040]. The solution with high concentration of compounds was added to the resuspension of UTI89 before given to the mice. The eight-week old Female C3H/HeN mice (Harlan, Horst, The Netherlands) were anesthetized and infected via transurethral catheterization of 10^7 CFU UTI89 in solution in PBS, or in PBS with the compound in the mentioned concentration. The mice were sacrificed at 24 hours post infection and the bladders were harvested, homogenized and resuspended in PBS. The serial dilutions were spot on LB medium agar plates. The bacterial load was determined by counting the CFU recovered from the bladder. […]

[2] = system: CD-associated E. coli strain AIEC LF82; assay: Hemagglutination inhibition (HAI) with AIEC LF82, guinea pig erythrocytes; type: cell-based, Escherichia coli
Protocol: AIEC adhesion to the gut occurs through the binding of FimH adhesins to the mannosylated glycans of intestinal cells. This scenario was first mimicked here with the highly mannosylated glycocalyx of guinea pig erythrocytes.
A two-fold dilution series of the antagonists was added to wells containing guinea pig erythrocytes and AIEC LF82 bacteria. The formation of the cross-linked network (hemagglutination) due to the interaction of the E. coli FimH adhesins with the glycocalyx of the erythrocytes was prevented at a certain concentration of inhibitors. The lowest concentration at which hemagglutination is still inhibited is defined as the inhibition titer of the antagonist. HM was included in the assay to obtain a relative inhibitory concentration (rIC) for the antagonists by dividing the inhibitory concentration (IC) of the substance of interest by the value for HM. In fact, rICs are more accurate than rough inhibition titers to compare the potency of antagonists evaluated in different assays.

Row | SMILES | Reduction of the level of infection [1] | Inhibitory potency in HAI (in words) [2]
1 | OCC1OC(OCCCCCCCOCc2cn(CC3OC4OC5C(Cn6cc(COCCCCCCCOC7OC(CO)C(O)C(O)C7O)nn6)OC(OC6C(Cn7cc(COCCCCCCCOC8OC(CO)C(O)C(O)C8O)nn7)OC(OC7C(Cn8cc(COCCCCCCCOC9OC(CO)C(O)C(O)C9O)nn8)OC(OC8C(Cn9cc(COCCCCCCCOC%10OC(CO)C(O)C(O)C%10O)nn9)OC(OC9C(Cn%10cc(COCCCCCCCOC%11OC(CO)C(O)C(O)C%11O)nn%10)OC(OC%10C(Cn%11cc(COCCCCCCCOC%12OC(CO)C(O)C(O)C%12O)nn%11)OC(OC3C(O)C4O)C(O)C%10O)C(O)C9O)C(O)C8O)C(O)C7O)C(O)C6O)C(O)C5O)nn2)C(O)C(O)C1O (centres unmarked) [Compound 2] | 5-10 folds | –
2 | O=C(c1ccc2ccccc2c1)c1cnc(N[C@H]2O[C@H](CO)[C@@H](O)[C@H](O)[C@@H]2O)s1 [Compound 15, 2-(α-D-mannopyranosyl)amino-5-(2-naphthoyl)thiazole] | – | less potent than HM
